Test results as given in the supplement of paper PMC10849652.
The other results are listed elsewhere or left out.

The chains behind the UniProt entries cited, without tags or fusion partners. Where a name states a change or a piece, a line headed by the entry shows the natural chain unless it says otherwise.
UniProt Q5JTW2: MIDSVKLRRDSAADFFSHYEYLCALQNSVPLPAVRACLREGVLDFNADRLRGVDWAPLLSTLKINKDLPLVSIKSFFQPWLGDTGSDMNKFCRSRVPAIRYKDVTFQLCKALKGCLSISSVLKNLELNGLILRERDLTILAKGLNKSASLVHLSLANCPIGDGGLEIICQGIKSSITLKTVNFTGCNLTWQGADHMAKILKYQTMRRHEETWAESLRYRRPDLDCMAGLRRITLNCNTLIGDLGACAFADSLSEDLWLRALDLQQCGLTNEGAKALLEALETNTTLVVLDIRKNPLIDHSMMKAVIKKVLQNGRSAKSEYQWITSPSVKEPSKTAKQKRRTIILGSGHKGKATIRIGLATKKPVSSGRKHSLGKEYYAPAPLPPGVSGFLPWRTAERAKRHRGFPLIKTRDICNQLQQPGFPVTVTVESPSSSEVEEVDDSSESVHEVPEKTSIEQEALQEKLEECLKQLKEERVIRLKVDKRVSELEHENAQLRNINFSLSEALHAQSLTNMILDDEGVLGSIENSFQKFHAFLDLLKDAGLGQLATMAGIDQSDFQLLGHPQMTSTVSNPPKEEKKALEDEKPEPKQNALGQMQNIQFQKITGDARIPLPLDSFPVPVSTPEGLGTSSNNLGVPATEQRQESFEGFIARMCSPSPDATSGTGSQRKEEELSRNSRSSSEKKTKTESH
UniProt Q49AH0, whole entry, looked up: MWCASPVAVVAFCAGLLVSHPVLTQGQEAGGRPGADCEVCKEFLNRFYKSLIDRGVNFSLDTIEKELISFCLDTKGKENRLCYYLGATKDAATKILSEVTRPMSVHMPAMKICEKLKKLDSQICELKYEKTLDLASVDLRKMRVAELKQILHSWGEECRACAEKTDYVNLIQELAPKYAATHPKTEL
UniProt Q6DT37: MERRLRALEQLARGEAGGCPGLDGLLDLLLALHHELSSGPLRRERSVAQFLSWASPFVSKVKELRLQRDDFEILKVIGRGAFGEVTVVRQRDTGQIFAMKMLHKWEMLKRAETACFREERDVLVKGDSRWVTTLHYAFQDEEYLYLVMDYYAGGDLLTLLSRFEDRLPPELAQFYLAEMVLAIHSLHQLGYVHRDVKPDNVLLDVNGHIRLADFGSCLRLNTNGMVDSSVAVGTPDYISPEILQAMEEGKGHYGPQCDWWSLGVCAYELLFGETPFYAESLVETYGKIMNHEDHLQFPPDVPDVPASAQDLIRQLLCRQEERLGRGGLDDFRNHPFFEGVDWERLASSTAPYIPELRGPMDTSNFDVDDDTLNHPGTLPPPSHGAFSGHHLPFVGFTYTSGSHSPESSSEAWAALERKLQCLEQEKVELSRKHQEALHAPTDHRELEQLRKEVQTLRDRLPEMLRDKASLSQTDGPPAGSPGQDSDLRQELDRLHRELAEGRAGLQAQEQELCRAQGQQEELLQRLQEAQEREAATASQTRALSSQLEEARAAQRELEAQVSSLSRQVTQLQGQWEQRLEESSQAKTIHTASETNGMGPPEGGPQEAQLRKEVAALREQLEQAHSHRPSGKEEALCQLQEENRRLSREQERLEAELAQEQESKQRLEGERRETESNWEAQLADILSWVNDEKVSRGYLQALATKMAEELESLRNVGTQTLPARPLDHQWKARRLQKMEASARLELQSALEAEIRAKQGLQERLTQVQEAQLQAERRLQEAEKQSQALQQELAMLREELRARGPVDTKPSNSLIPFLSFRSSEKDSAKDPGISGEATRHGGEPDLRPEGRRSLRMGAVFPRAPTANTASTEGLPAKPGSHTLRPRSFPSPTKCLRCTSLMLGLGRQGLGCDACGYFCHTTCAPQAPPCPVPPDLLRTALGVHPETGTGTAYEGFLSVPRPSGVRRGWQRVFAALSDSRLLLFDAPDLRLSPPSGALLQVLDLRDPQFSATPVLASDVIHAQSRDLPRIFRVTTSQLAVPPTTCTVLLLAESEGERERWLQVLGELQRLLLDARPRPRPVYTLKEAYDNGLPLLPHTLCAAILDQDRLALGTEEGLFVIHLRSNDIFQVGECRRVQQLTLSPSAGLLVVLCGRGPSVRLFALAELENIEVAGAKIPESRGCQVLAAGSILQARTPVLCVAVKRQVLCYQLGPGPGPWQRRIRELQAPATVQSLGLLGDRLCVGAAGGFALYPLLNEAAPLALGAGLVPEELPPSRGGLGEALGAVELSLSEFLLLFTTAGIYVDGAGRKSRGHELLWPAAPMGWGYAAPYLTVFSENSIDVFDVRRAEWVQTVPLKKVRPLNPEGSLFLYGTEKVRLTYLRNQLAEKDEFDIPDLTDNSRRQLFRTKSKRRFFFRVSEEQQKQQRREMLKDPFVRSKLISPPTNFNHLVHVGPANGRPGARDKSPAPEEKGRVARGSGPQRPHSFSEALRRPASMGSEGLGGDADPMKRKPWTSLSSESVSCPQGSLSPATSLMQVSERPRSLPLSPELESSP
UniProt Q6NVV7: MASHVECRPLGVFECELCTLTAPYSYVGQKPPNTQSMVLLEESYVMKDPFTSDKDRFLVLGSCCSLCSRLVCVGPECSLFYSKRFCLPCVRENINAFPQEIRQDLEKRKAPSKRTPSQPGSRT
UniProt A8MT69: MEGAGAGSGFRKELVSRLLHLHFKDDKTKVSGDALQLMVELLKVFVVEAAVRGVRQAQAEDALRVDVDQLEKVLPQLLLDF
UniProt Q99741: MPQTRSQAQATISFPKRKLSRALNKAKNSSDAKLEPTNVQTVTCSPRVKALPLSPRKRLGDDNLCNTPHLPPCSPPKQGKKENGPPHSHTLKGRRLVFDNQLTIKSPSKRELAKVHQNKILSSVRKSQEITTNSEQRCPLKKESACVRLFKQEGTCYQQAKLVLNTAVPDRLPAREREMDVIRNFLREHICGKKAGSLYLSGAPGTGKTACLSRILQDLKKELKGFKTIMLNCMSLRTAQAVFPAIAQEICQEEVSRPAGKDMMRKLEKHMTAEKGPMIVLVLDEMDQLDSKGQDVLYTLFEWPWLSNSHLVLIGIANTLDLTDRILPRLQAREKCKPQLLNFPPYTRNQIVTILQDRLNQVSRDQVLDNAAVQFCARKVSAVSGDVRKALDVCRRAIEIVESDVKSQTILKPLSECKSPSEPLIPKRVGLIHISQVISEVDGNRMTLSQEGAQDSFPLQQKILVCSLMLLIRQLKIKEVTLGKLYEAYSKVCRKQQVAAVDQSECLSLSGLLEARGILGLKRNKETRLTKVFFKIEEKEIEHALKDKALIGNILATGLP
UniProt Q5SZL2: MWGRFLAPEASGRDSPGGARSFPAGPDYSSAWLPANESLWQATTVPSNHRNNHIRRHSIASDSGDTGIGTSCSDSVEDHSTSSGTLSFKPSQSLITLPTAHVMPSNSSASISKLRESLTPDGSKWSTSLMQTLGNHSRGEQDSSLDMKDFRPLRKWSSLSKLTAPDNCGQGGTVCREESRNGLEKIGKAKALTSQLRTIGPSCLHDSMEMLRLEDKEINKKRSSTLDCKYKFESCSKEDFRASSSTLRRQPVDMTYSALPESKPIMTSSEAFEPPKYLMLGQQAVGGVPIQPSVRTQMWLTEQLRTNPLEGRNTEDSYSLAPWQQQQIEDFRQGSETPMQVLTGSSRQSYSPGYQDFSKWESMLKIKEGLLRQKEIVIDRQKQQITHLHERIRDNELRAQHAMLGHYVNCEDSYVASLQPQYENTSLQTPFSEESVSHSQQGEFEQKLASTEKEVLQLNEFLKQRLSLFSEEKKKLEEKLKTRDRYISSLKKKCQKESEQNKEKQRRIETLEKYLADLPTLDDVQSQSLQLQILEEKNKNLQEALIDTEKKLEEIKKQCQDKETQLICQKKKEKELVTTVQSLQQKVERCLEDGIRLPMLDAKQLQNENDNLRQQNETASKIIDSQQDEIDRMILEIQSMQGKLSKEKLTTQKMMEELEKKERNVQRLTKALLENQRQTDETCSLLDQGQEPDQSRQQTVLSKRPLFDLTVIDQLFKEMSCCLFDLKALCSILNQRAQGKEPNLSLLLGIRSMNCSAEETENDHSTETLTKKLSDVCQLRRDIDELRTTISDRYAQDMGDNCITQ
UniProt Q8TCZ2: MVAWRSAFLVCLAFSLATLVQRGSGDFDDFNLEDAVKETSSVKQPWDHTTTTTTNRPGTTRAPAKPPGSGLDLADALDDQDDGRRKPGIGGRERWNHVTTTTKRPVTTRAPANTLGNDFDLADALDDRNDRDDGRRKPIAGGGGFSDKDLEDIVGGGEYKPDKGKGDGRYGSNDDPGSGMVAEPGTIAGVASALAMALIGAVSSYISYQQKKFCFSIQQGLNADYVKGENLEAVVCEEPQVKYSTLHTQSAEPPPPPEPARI
UniProt Q9Y592: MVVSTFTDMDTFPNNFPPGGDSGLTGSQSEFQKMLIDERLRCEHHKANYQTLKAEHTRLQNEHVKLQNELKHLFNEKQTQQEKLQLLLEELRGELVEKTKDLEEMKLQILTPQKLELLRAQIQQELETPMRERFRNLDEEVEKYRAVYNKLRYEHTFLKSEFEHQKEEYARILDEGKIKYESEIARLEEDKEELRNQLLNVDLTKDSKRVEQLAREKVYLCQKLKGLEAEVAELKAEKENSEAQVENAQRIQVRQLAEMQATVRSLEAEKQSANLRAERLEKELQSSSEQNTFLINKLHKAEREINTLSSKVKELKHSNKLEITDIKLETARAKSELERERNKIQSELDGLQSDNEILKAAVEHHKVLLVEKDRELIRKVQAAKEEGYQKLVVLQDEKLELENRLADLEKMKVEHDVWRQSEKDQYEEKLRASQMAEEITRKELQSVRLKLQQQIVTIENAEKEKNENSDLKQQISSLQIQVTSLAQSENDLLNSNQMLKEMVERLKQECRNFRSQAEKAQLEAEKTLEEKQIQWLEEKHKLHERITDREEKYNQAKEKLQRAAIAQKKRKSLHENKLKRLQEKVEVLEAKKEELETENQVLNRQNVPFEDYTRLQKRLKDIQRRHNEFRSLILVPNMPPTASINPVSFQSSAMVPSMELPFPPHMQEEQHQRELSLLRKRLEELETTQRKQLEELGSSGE
UniProt Q9UNH5: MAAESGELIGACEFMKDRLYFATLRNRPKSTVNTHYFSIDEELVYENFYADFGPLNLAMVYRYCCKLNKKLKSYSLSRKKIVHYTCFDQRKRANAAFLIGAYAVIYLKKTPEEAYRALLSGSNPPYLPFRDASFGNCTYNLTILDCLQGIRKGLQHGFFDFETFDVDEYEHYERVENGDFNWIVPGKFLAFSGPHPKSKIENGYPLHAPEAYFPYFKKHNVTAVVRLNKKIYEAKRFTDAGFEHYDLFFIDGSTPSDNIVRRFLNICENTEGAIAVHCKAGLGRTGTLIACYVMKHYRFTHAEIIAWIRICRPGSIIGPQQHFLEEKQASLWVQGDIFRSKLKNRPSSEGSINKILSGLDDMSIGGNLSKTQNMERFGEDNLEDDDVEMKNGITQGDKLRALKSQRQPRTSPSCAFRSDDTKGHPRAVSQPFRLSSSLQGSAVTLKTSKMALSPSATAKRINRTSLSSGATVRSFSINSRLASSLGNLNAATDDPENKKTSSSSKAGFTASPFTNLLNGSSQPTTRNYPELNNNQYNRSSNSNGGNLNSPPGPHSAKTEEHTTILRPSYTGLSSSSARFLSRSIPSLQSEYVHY
UniProt P27701: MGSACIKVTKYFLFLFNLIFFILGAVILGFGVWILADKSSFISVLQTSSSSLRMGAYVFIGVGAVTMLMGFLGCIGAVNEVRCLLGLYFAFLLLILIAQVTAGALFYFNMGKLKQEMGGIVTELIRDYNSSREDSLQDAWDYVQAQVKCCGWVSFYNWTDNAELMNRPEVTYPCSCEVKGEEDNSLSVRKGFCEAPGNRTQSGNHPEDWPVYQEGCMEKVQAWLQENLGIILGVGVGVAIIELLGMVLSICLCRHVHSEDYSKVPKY
UniProt Q96MT8: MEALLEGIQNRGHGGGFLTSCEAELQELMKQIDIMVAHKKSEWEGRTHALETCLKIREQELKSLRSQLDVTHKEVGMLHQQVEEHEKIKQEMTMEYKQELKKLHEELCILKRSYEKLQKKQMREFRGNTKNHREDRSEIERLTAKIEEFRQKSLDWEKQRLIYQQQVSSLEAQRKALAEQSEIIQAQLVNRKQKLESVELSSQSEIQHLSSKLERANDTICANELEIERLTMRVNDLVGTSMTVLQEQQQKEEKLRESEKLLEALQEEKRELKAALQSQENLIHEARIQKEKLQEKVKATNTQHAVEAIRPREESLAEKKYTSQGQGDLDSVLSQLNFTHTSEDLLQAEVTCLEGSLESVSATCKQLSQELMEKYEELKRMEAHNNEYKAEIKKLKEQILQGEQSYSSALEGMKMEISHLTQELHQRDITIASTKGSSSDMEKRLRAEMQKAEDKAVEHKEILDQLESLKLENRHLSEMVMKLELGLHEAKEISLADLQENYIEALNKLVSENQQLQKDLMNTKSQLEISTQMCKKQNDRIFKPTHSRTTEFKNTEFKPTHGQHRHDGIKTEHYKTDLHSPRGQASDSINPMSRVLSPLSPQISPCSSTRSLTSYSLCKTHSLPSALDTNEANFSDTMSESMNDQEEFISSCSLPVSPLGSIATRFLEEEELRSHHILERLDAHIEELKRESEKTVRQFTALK

Compound: CC1=C(C=C(C=C1)NC(=O)C2=CC(=CC=C2)C(C)(C)C#N)NC3=CC4=C(C=C3)N=CN(C4=O)C
Test: log2 fold change, soluble protein after heating vs DMSO (PISA); higher = thermal stabilisation; K562 lysate, 10 uM; active = over 0.2 and 3.5 SD of the protein, either way, in both replicates (recomputed)
How it was run: (§1)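 Quantification was by TMTpro 16plex LC-MS/MS with equalised channel sums, applied to the supernatant after 21,000xg for 90 min. Samples were crude K562 extract at 1 mg/mL protein in PBS pH 7.4 with 1 mM MgCl2, treated with 10 μM compound for 30 min, heated for 3 min across 48°C-58°C, pooled and brought to 0.5% NP-40 at 4°C. Values are log-two fold changes in thermal stability relative to solvent controls, from duplicates.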

**Q.** How did the log2 fold change turn out when CFAP97 (UniProt Q9P2B7) was run?
**A.** inactive: 0.139

**Q.** For CEP78 isoform 2 (UniProt Q5JTW2), which log2 fold change is on record?
**A.** inactive: -0.012

**Q.** How did the log2 fold change turn out when CFL1 (UniProt E9PQB7) was run?
**A.** inactive: 0.337

**Q.** How did the log2 fold change turn out when CDNF (UniProt Q49AH0) was run?
**A.** inactive: 0

**Q.** CDC42BPG (UniProt Q6DT37) was tested. Which log2 fold change did it give?
**A.** inactive: -0.088

**Q.** With CDPF1 (UniProt Q6NVV7) as the target, how does the log2 fold change read?
**A.** inactive: 0.011

**Q.** CENPX (UniProt A8MT69) was tested. Which log2 fold change did it give?
**A.** inactive: -0.062

**Q.** CDC6 (UniProt Q99741) was tested. Which log2 fold change did it give?
**A.** inactive: -0.02

**Q.** For CDADC1 (UniProt Q9BWV3), which log2 fold change is on record?
**A.** inactive: 0.032

**Q.** For CEP162 (UniProt Q5TB80), which log2 fold change is on record?
**A.** inactive: 0.042

**Q.** Which log2 fold change does the source give for CDC42EP2 (UniProt O14613) here?
**A.** inactive: 0.116

**Q.** Which log2 fold change does the source give for CFLAR (UniProt O15519) here?
**A.** inactive: 0.026

**Q.** How did the log2 fold change turn out when CDAN1 (UniProt H3BPZ6) was run?
**A.** inactive: -0.172

**Q.** How did the log2 fold change turn out when CDKL5 (UniProt O76039) was run?
**A.** inactive: 0.111

**Q.** For CEP85L isoform 4 (UniProt Q5SZL2), which log2 fold change is on record?
**A.** inactive: 0.116

**Q.** How did the log2 fold change turn out when CEP170B (UniProt Q9Y4F5) was run?
**A.** inactive: 0.056

**Q.** CD99L2 isoform 5 (UniProt Q8TCZ2) was tested. Which log2 fold change did it give?
**A.** inactive: -0.011

**Q.** CEP83 (UniProt Q9Y592) was tested. Which log2 fold change did it give?
**A.** inactive: 0.037

**Q.** Which log2 fold change does the source give for CDC14A isoform 2 (UniProt Q9UNH5) here?
**A.** inactive: 0.145

Compound: CC1=C(C=C(C=C1)NC(=O)C2=CC(=CC=C2)N(C)C)NC(=O)C3=CC=C(C=C3)O
Test: as above
How it was run: as §1

**Q.** How did the log2 fold change turn out when CDCA4 (UniProt Q9BXL8) was run?
**A.** inactive: -0.118

**Q.** CFAP97 (UniProt Q9P2B7) was tested. Which log2 fold change did it give?
**A.** inactive: -0.05

**Q.** How did the log2 fold change turn out when CEP72 (UniProt Q9P209) was run?
**A.** inactive: -0.155

**Q.** CDC42BPG (UniProt Q6DT37) was tested. Which log2 fold change did it give?
**A.** inactive: -0.149

**Q.** With CDPF1 (UniProt Q6NVV7) as the target, how does the log2 fold change read?
**A.** inactive: 0.214

**Q.** Which log2 fold change does the source give for CENPX (UniProt A8MT69) here?
**A.** inactive: -0.206

**Q.** For CDC6 (UniProt Q99741), which log2 fold change is on record?
**A.** inactive: -0.315

**Q.** CD82 (UniProt P27701) was tested. Which log2 fold change did it give?
**A.** inactive: 0.053

**Q.** With CDC42EP2 (UniProt O14613) as the target, how does the log2 fold change read?
**A.** inactive: -0.029

**Q.** For CFLAR (UniProt O15519), which log2 fold change is on record?
**A.** inactive: -0.058

**Q.** With CEP104 (UniProt O60308) as the target, how does the log2 fold change read?
**A.** inactive: -0.201

**Q.** CEP83 (UniProt Q9Y592) was tested. Which log2 fold change did it give?
**A.** inactive: -0.036

**Q.** Which log2 fold change does the source give for CENPC (UniProt Q03188) here?
**A.** inactive: -0.073

**Q.** CDC14A isoform 2 (UniProt Q9UNH5) was tested. Which log2 fold change did it give?
**A.** inactive: 0.219

Compound: CC1=CC=C(C=C1)SC2=C3C=C(SC3=CN=C2)C(=O)N
Test: as above
How it was run: as §1

**Q.** CDNF (UniProt Q49AH0) was tested. Which log2 fold change did it give?
**A.** inactive: 0.114

**Q.** For CDC42BPG (UniProt Q6DT37), which log2 fold change is on record?
**A.** inactive: -0.119

**Q.** With CD82 (UniProt P27701) as the target, how does the log2 fold change read?
**A.** inactive: 0.044

**Q.** How did the log2 fold change turn out when CEP63 (UniProt Q96MT8) was run?
**A.** inactive: 0.011

**Q.** How did the log2 fold change turn out when CDKL5 (UniProt O76039) was run?
**A.** inactive: -0.019

**Q.** Which log2 fold change does the source give for CEP170B (UniProt Q9Y4F5) here?
**A.** inactive: 0.23

**Q.** How did the log2 fold change turn out when CD99L2 isoform 5 (UniProt Q8TCZ2) was run?
**A.** inactive: 0.07

**Q.** How did the log2 fold change turn out when CEP83 (UniProt Q9Y592) was run?
**A.** inactive: -0.033

**Q.** With CDC14A isoform 2 (UniProt Q9UNH5) as the target, how does the log2 fold change read?
**A.** inactive: 0.006

**Q.** For CDC42, A0A494C1M1, which log2 fold change is on record?
**A.** inactive: 0.118
